# According to US20050070570A1, “Novel potassium channels modulators” (4SC AG, priority 2003, published 2005):
# Protein sequences, listed by entry. Tags and fused reporters are not part of them. Lines headed by an entry give the natural chain unless they say otherwise; changes in a name come on top.
# UniProt Q12791: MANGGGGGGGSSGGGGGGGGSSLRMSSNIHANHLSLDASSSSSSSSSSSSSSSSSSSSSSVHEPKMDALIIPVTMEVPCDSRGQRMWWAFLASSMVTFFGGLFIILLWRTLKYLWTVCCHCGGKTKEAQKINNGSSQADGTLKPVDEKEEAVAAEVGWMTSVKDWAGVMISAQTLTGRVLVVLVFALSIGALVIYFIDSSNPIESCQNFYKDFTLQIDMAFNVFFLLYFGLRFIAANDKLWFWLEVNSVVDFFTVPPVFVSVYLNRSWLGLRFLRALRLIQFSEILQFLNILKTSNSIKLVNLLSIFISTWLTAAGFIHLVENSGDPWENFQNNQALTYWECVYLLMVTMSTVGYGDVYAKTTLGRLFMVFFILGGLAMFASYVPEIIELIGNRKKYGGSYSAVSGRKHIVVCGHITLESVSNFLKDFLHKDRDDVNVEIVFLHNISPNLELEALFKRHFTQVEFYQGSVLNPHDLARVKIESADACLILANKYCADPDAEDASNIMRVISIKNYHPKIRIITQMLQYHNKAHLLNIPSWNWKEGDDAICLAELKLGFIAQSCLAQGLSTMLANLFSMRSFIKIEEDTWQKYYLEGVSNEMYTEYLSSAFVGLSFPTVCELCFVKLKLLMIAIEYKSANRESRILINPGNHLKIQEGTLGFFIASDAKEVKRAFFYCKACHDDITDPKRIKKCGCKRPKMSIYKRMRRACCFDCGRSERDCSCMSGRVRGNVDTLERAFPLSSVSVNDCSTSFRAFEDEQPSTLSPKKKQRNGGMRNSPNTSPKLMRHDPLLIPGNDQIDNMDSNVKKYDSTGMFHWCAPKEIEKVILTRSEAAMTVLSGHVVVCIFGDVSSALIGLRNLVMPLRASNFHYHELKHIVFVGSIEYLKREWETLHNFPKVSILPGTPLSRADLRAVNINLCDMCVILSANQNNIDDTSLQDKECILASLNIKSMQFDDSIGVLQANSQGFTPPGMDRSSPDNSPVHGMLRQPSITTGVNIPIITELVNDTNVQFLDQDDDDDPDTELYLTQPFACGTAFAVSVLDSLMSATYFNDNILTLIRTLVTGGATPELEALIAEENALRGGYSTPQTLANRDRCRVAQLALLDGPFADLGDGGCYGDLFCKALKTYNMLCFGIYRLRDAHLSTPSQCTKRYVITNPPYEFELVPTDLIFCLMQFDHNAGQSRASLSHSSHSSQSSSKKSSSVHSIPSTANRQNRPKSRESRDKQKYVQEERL
# At least one structure is not confirmed: it was looked up by name or label, or the drawing left a doubt.
# Target: BK channels (CHO cells permanently transfected with cloned hSlo, α-hSlo and β-bSlo) (Homo sapiens, UniProt Q12791)
# Test: Em-Assay: fluorescence membrane potential assay with voltage sensitive dye DiBAC(4)3
# Assay type: cell-based
# Conditions: ratio of the compound effect (50 μM) compared to the maximal effect of NS004 (25 or 50 μM)
# Text: The large conductance, voltage-dependent and Ca^2+-activated potassium channel BK is a potassium selective ion channel and belongs to the subfamily of KCa channels. Four BK alpha-subunits form a functional channel that can be regulated by intracellular Ca^2+ concentration, membrane voltage, and other mechanisms like phosphorylation states or beta subunits. To test the biological activity of the compounds, we applied two different techniques, a fluorescence based assay using a voltage sensitive dye (Em-Assay) as well as exploiting electrophysiological methods. […]
# To determine changes in the membrane potential of the cells we used the voltage sensitive dye DiBaC(4)3 (Molecular Probes) in a kinetic assay system using a fluorescent plate reader (Manning and Sontheimer, J. Neurosci. Meth., 91: 73-81 (1999). The anionic bis-oxonol DiBAC(4)3 is a voltage sensitive dye which partitions from the extracellular environment into the cell where it reversibly binds to intracellular proteins, a kinetic process depending on the membrane potential of the cell. At depolarised potentials (i.e. at a reduced K^+ efflux due to blocked K^+ channels) the dye accumulates in the cell leading to an increased fluorescence intensity, due to its increased fluorescence if bound to cellular proteins. […]
structure (smiles),measurement,value
"COc1cc2c(c(OC)c1)C(c1ccc(O)cc1)N(C(=O)C1CCCCC1)CC2 (stereo not shown) [Compound 28, Cyclohexyl-[1-(4-hydroxy-phenyl)-6,8-dimethoxy-3,4-dihydro-1H-isoquinolin-2-yl]-methanone]",Em effect,+ (0-1=+)
